No constants are given. Whether binding was seen depends on the method and setting. In cells and extracts the contact can be indirect. Binding calls can cover weak binding; strength is not graded here. Sequences can lack the tags named with a protein.
Assays:
[1] = target: S-tagged wild-type hNSE3/MAGEG1 (human); assay: co-IP; HEK293T co-transfected with S-tagged hNSE3/MAGEG1 and FLAG-NSE4b; lysates (50 mM Tris-HCl pH 7.7, 0.5% NP40, 150 mM NaCl) precipitated with S-protein agarose, 4 h at 4°C; anti-FLAG blot
[2] = target: S-tagged hNSE3/MAGEG1(L267A) (human); assay: as above

B1: FLAG-tagged wild-type NSE4b/EID3 (protein, UniProt Q8N140 1-333)
chain: MKMDVSVRAAGCSDDLSSGEADVDPKLLELTADEEKCRSIRRQYRQLMYCVRQNREDIVSSANNSLTEALEEANVLFDGVSRTREAALDARFLVMASDLGKEKAKQLNSDMNFFNQLAFCDFLFLFVGLNWMEGDPDKLSDCDDSIALSFWKAIEKEATSWMVKAETFHFVFGSFKLERSAPKPRLEHQKKVRKMEENGNMPTKLQKLDLSSYPEATEKNVERILGLLQTYFRKYPDTPVSYFEFVIDPNSFSRTVENIFYVSFIVRDGFARIRLDEDRLPILEPMNVNQMGEGNDSSCHGRKQGVISLTLQEWKNIVAAFEISEAMITYSSY
**Q.** Which results are given for B1?
**A.** binding [1]: binds; binding [2]: binds

B2: FLAG-tagged NSE4b(F114A/F124A) (protein, UniProt Q8N140 1-333)
chain: MKMDVSVRAAGCSDDLSSGEADVDPKLLELTADEEKCRSIRRQYRQLMYCVRQNREDIVSSANNSLTEALEEANVLFDGVSRTREAALDARFLVMASDLGKEKAKQLNSDMNFANQLAFCDFLALFVGLNWMEGDPDKLSDCDDSIALSFWKAIEKEATSWMVKAETFHFVFGSFKLERSAPKPRLEHQKKVRKMEENGNMPTKLQKLDLSSYPEATEKNVERILGLLQTYFRKYPDTPVSYFEFVIDPNSFSRTVENIFYVSFIVRDGFARIRLDEDRLPILEPMNVNQMGEGNDSSCHGRKQGVISLTLQEWKNIVAAFEISEAMITYSSY
**Q.** B2 was tested. Which binding [1] did it give?
**A.** binds

**Q.** What about the binding [2] of the same binder?
**A.** no binding
